Paper PMC3912138
Positions count from the first letter of the chain named. These are yes or no findings as the source states them, for the method shown. Binding seen in cells or lysates may run through a third protein. Some binding calls cover weakened binding; strength is not graded here. Where a sequence is shown, tags or fusion partners need not be part of it.

By UniProt entry, the sequences of proteins in these tests, tags left out.
UniProt P55884: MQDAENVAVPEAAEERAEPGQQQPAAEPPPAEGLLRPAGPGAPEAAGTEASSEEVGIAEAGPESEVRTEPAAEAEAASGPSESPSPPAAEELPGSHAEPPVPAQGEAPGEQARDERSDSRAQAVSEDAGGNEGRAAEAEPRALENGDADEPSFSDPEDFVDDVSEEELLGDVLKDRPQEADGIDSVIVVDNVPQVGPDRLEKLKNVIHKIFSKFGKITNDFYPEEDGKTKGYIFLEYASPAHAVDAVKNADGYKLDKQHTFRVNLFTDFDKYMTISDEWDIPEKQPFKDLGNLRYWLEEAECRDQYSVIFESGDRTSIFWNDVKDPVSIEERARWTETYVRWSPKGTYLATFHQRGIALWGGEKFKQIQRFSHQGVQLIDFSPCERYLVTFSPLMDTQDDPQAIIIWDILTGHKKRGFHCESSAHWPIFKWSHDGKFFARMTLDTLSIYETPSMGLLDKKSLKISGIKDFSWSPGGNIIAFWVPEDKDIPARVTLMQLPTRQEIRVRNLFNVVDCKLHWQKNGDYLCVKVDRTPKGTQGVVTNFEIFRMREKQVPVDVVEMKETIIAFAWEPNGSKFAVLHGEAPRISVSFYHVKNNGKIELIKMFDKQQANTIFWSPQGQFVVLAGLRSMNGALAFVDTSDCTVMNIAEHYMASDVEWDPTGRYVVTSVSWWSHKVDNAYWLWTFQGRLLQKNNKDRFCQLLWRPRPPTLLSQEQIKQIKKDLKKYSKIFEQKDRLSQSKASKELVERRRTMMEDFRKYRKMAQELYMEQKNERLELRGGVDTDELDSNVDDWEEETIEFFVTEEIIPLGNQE

Key:
[1] = target: T1, CERKL-Flag (CERKLa, full length CERKL isoform of 532 amino acids, wild type) (human) (UniProt Q49MI3); test: co-IP; Flag immunoprecipitation (anti-Flag M2 affinity beads) from a cytoskeletal fraction isolated from HEK-293T cells transfected with CERKL-WT; fractions treated with 15 mM EDTA or 100 µg/ml RNase A at 150, 450 and 600 mM NaCl; Western blot
T1 sequence: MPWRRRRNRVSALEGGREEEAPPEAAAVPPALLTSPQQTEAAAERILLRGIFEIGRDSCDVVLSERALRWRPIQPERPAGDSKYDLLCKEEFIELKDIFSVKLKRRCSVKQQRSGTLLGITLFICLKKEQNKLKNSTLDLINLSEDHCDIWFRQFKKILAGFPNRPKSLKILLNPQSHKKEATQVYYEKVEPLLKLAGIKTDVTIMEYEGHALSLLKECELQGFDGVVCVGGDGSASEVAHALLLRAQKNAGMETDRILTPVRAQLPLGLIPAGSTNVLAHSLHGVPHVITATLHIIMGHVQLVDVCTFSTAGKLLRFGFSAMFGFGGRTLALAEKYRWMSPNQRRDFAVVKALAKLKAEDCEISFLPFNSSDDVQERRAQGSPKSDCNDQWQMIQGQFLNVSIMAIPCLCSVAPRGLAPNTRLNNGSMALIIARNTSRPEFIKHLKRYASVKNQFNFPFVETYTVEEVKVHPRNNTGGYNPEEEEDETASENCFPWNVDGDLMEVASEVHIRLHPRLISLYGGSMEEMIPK

[2] = target: T2, CERKL-C125W-Flag (pathological point mutant of CERKLa) (human) (UniProt Q49MI3); test: co-IP; Flag immunoprecipitation (M2 Flag beads, 1 h, 4°C; lysis buffer 1% Triton X-100, 150 mM NaCl, 20 mM Tris pH 7.4) from lysates of transfected HEK 293T cells, Western blot of endogenous partners; in some panels cells treated with cycloheximide or colchicine, and lysates treated or not with RNase A (100 µg/mL) at 150, 450 or 600 mM NaCl
T2 sequence: T1 sequence with C125W

[3] = target: T1, CERKL-Flag (CERKLa, full length CERKL isoform of 532 amino acids, wild type) (human); test: as above

“eIF3B (translation initiation factor eIF3B) (from UniProt P55884 1-814)” was tested, and the binding [1] was “binds”, the binding [2] was “no binding” and the binding [3] was “binds”.
